# Assay results: the supplement of paper PMC8728848
# The other results are listed elsewhere or left out.
# B1: SUN4P (Saccharomyces cerevisiae), P53616 (protein)
# chain: MGSSHHHHHHSSGLVPRGSHNGSIYGDLADFSGPYEKFEDGTIPCGQFPSGQGVIPISWLDEGGWSGVENTDTSTGGSCKEGSYCSYACQPGMSKTQWPSDQPSDGRSIGGLLCKDGYLYRSNTDTDYLCEWGVDAAYVVSELSNDVAICLTDYPGTENMVIPTYVQAGDSLPLTVVDQDTYYTWQGLKTSAQYYVNNAGISVEDACVWGSSSSGVGNWAPLNFGAGSSDGVAYLSLIPNPNNGNALNFNVKIVAADDSSTVNGECIYENGSFSGGSDGCTVSVTAGKAKFVLYN
# Legend:
# Assay in all cases: glycan array binding signal (z-score within array); higher = stronger binding
# Settings in all cases: glycan notation: IUPAC condensed, linker removed; mutation: R276L
# [1] = molecular target: Neu5Ac(a2-3)Gal(b1-3)[Neu5Ac(a2-6)]GlcNAc(b1-3)[Fuc(a1-3)[Gal(b1-4)]GlcNAc(b1-6)]Gal(b1-4)Glc
# Summary of the method: (§1)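 From the Consortium for Functional Glycomics database, 3228 arrays were curated, keeping only those whose protein sequence was available. Binding is given as a within-array Z-score averaged across arrays sharing a protein sequence and across linkers. Negative Z-scores can be read as non-binding.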
# [2] = molecular target: Neu5Ac(a2-3)Gal(b1-3)]Neu5Ac(a2-3)Gal(b1-4)]GlcNAc
# Summary of the method: as §1
# Neu5Ac(a2-3)Gal(b1-4)Glc = molecular target: Neu5Ac(a2-3)Gal(b1-4)Glc
# Summary of the method: as §1
# [3] = molecular target: Neu5Ac(a2-3)Gal(b1-4)GlcNAc
# Summary of the method: as §1
# [4] = molecular target: Neu5Ac(a2-3)Gal(b1-4)GlcNAc(b1-2)Man
# Summary of the method: as §1
# [5] = molecular target: Neu5Ac(a2-3)Gal(b1-4)GlcNAc(b1-2)Man(a1-3)[GlcNAc(b1-4)][Neu5Ac(a2-3)Gal(b1-4)GlcNAc(b1-2)Man(a1-6)]Man(b1-4)GlcNAc(b1-4)GlcNAc
# Summary of the method: as §1
# [6] = molecular target: Neu5Ac(a2-3)Gal(b1-4)GlcNAc(b1-2)Man(a1-3)[Neu5Ac(a2-3)Gal(b1-4)GlcNAc(b1-2)Man(a1-6)]Man(b1-4)GlcNAc(b1-4)GlcNAc
# Summary of the method: as §1
# [7] = molecular target: Neu5Ac(a2-3)Gal(b1-4)GlcNAc(b1-2)Man(a1-3)[Neu5Ac(a2-3)Gal(b1-4)GlcNAc(b1-2)Man(a1-6)]Man(b1-4)GlcNAc(b1-4)[Fuc(a1-6)]GlcNAc
# Summary of the method: as §1
# [8] = molecular target: Neu5Ac(a2-3)Gal(b1-4)GlcNAc(b1-2)Man(a1-3)[Neu5Ac(a2-6)Gal(b1-4)GlcNAc(b1-2)Man(a1-6)]Man(b1-4)GlcNAc(b1-4)GlcNAc
# Summary of the method: as §1
# [9] = molecular target: Neu5Ac(a2-3)Gal(b1-4)GlcNAc(b1-2)[Neu5Ac(a2-3)Gal(b1-4)GlcNAc(b1-4)]Man(a1-3)[GlcNAc(b1-4)][Neu5Ac(a2-3)Gal(b1-4)GlcNAc(b1-2)[Neu5Ac(a2-3)Gal(b1-4)GlcNAc(b1-6)]Man(a1-6)]Man(b1-4)GlcNAc(b1-4)GlcNAc
# Summary of the method: as §1
# [10] = molecular target: Neu5Ac(a2-3)Gal(b1-4)GlcNAc(b1-2)[Neu5Ac(a2-3)Gal(b1-4)GlcNAc(b1-4)]Man(a1-3)[GlcNAc(b1-4)][Neu5Ac(a2-3)Gal(b1-4)GlcNAc(b1-4)Man(a1-6)]Man(b1-4)GlcNAc(b1-4)GlcNAc
# Summary of the method: as §1
# [11] = molecular target: Neu5Ac(a2-3)Gal(b1-4)GlcNAc(b1-2)[Neu5Ac(a2-3)Gal(b1-4)GlcNAc(b1-6)]Man(a1-6)[Neu5Ac(a2-3)Gal(b1-4)GlcNAc(b1-2)Man(a1-3)][GlcNAc(b1-4)]Man(b1-4)GlcNAc(b1-4)GlcNAc
# Summary of the method: as §1
# [12] = molecular target: Neu5Ac(a2-3)Gal(b1-4)GlcNAc(b1-3)Gal
# Summary of the method: as §1
# [13] = molecular target: Neu5Ac(a2-3)Gal(b1-4)GlcNAc(b1-3)Gal(b1-3)GlcNAc
# Summary of the method: as §1
# [14] = molecular target: Neu5Ac(a2-3)Gal(b1-4)GlcNAc(b1-3)Gal(b1-4)GlcNAc
# Summary of the method: as §1
# [15] = molecular target: Neu5Ac(a2-3)Gal(b1-4)GlcNAc(b1-3)Gal(b1-4)GlcNAc(b1-2)Man(a1-3)[Neu5Ac(a2-3)Gal(b1-4)GlcNAc(b1-3)Gal(b1-4)GlcNAc(b1-2)Man(a1-6)]Man(b1-4)GlcNAc(b1-4)GlcNAc
# Summary of the method: as §1
# [16] = molecular target: Neu5Ac(a2-3)Gal(b1-4)GlcNAc(b1-3)Gal(b1-4)GlcNAc(b1-3)Gal(b1-4)GlcNAc
# Summary of the method: as §1
# [17] = molecular target: Neu5Ac(a2-3)Gal(b1-4)GlcNAc(b1-3)Gal(b1-4)GlcNAc(b1-3)Gal(b1-4)GlcNAc(b1-2)Man(a1-3)[Neu5Ac(a2-3)Gal(b1-4)GlcNAc(b1-3)Gal(b1-4)GlcNAc(b1-3)Gal(b1-4)GlcNAc(b1-2)Man(a1-6)]GalNAc
# Summary of the method: as §1
# [18] = molecular target: Neu5Ac(a2-3)Gal(b1-4)GlcNAc(b1-3)Gal(b1-4)GlcNAc(b1-3)GalNAc
# Summary of the method: as §1
# [19] = molecular target: Neu5Ac(a2-3)Gal(b1-4)GlcNAc(b1-3)Gal(b1-4)GlcNAc(b1-3)[Neu5Ac(a2-3)Gal(b1-4)GlcNAc(b1-3)Gal(b1-4)GlcNAc(b1-6)]GalNAc
# Summary of the method: as §1
# [20] = molecular target: Neu5Ac(a2-3)Gal(b1-4)GlcNAc(b1-3)Gal(b1-4)GlcNAc(b1-6)[Gal(b1-3)]GalNAc
# Summary of the method: as §1
# [21] = molecular target: Neu5Ac(a2-3)Gal(b1-4)GlcNAc(b1-3)Gal(b1-4)[Fuc(a1-3)]GlcNAc
# Summary of the method: as §1
# [22] = molecular target: Neu5Ac(a2-3)Gal(b1-4)GlcNAc(b1-3)GalNAc
# Summary of the method: as §1
# [23] = molecular target: Neu5Ac(a2-3)Gal(b1-4)GlcNAc(b1-3)[Neu5Ac(a2-3)Gal(b1-4)GlcNAc(b1-6)]GalNAc
# Summary of the method: as §1
# [24] = molecular target: Neu5Ac(a2-3)Gal(b1-4)GlcNAc(b1-6)GalNAc
# Summary of the method: as §1
# [25] = molecular target: Neu5Ac(a2-3)Gal(b1-4)GlcNAc(b1-6)[Gal(b1-3)]GalNAc
# Summary of the method: as §1
# [26] = molecular target: Neu5Ac(a2-3)Gal(b1-4)GlcNAc(b1-6)[Neu5Ac(a2-3)Gal(b1-3)]GalNAc
# Summary of the method: as §1
# [27] = molecular target: Neu5Ac(a2-3)Gal(b1-4)GlcNAc6S
# Summary of the method: as §1
# [28] = molecular target: Neu5Ac(a2-3)Gal(b1-4)[Fuc(a1-3)]GlcNAc
# Summary of the method: as §1
# [29] = molecular target: Neu5Ac(a2-3)Gal(b1-4)[Fuc(a1-3)]GlcNAc(b1-2)Man
# Summary of the method: as §1
# [30] = molecular target: Neu5Ac(a2-3)Gal(b1-4)[Fuc(a1-3)]GlcNAc(b1-3)Gal
# Summary of the method: as §1
# [31] = molecular target: Neu5Ac(a2-3)Gal(b1-4)[Fuc(a1-3)]GlcNAc(b1-3)Gal(b1-4)GlcNAc
# Summary of the method: as §1
# [32] = molecular target: Neu5Ac(a2-3)Gal(b1-4)[Fuc(a1-3)]GlcNAc(b1-3)Gal(b1-4)[Fuc(a1-3)]GlcNAc(b1-3)Gal(b1-4)[Fuc(a1-3)]GlcNAc
# Summary of the method: as §1
# [33] = molecular target: Neu5Ac(a2-3)Gal(b1-4)[Fuc(a1-3)]GlcNAc(b1-3)GalNAc
# Summary of the method: as §1
# [34] = molecular target: Neu5Ac(a2-3)Gal(b1-4)[Fuc(a1-3)]GlcNAc(b1-6)[Gal(b1-3)]GalNAc
# Summary of the method: as §1
# [35] = molecular target: Neu5Ac(a2-3)Gal(b1-4)[Fuc(a1-3)]GlcNAc(b1-6)[Neu5Ac(a2-3)Gal(b1-3)]GalNAc
# Summary of the method: as §1
# [36] = molecular target: Neu5Ac(a2-3)Gal(b1-4)[Fuc(a1-3)]GlcNAc6S
# Summary of the method: as §1
# [37] = molecular target: Neu5Ac(a2-3)Gal6S(b1-4)GlcNAc
# Summary of the method: as §1
binder,measurement,setting,value
B1,glycan array binding signal (z-score),[1],-0.341
same,glycan array binding signal (z-score),[2],0.213
same,glycan array binding signal (z-score),Neu5Ac(a2-3)Gal(b1-4)Glc,-1.01
same,glycan array binding signal (z-score),[3],-0.796
same,glycan array binding signal (z-score),[4],1.38
same,glycan array binding signal (z-score),[5],-0.446
same,glycan array binding signal (z-score),[6],-0.607
same,glycan array binding signal (z-score),[7],-0.195
same,glycan array binding signal (z-score),[8],0.739
same,glycan array binding signal (z-score),[9],0.28
same,glycan array binding signal (z-score),[10],-0.853
same,glycan array binding signal (z-score),[11],-0.504
same,glycan array binding signal (z-score),[12],-0.543
same,glycan array binding signal (z-score),[13],1.27
same,glycan array binding signal (z-score),[14],0.029
same,glycan array binding signal (z-score),[15],0.703
same,glycan array binding signal (z-score),[16],0.807
same,glycan array binding signal (z-score),[17],1.11
same,glycan array binding signal (z-score),[18],-0.113
same,glycan array binding signal (z-score),[19],0.624
same,glycan array binding signal (z-score),[20],-0.567
same,glycan array binding signal (z-score),[21],-0.687
same,glycan array binding signal (z-score),[22],-0.973
same,glycan array binding signal (z-score),[23],-0.132
same,glycan array binding signal (z-score),[24],1.78
same,glycan array binding signal (z-score),[25],1.59
same,glycan array binding signal (z-score),[26],1.04
same,glycan array binding signal (z-score),[27],-0.077
same,glycan array binding signal (z-score),[28],0.024
same,glycan array binding signal (z-score),[29],-0.186
same,glycan array binding signal (z-score),[30],-0.338
same,glycan array binding signal (z-score),[31],0.472
same,glycan array binding signal (z-score),[32],0.273
same,glycan array binding signal (z-score),[33],0.149
same,glycan array binding signal (z-score),[34],0.339
same,glycan array binding signal (z-score),[35],1.2
same,glycan array binding signal (z-score),[36],0.84
same,glycan array binding signal (z-score),[37],0.492

# Looked up one by one from the list above (2):
binder,measurement,setting,value
B1,glycan array binding signal (z-score),[17],1.11
same,glycan array binding signal (z-score),[13],1.27
